# Results deposited as PubChem BioAssay AID1224830 (NIAID, 2016)
# Assay: 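Host factors that control LPS-induced TNF expression in human macrophages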 (primary screen)
# System: human THP-1 monocytic leukaemia cells, TNF dual-luciferase reporter clone, PMA-differentiated to macrophage-like cells
# Reagents: siRNA pool against human genes, 50 nM
# Duration: LPS for 4 h, given about 3 days after siRNA transfection
# Conditions: bacterial LPS (TLR4 ligand), 10 ng/ml
# Read-out: 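Ratio of firefly to renilla light, scaled to the plate median and expressed as a robust z-score per replicate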
# Direction: TNF reporter robust z-score: higher = stronger TNF reporter response to LPS
# Call rule: 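Each well counts as active if its z-score is over 2.8 or under -1.5; controls are left without a call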
# The deposit covers about 18,000 reagents; this is an unselected part. About 2,900 of them (16%) count as active. 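Calls are made per well; low scores hint the gene aids the LPS response, high scores that it dampens it.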 A number with no mark means an inactive call. Repeated entries: four replicate wells of each siRNA pool. No sequences are given here.
gene symbol,TNF reporter robust z-score
CFAP107 (cilia and flagella associated protein 107),-1.11
CFAP107 (cilia and flagella associated protein 107),-1.4
CFAP107 (cilia and flagella associated protein 107),-1.49
CFAP107 (cilia and flagella associated protein 107),-0.92
"RAB40A (RAB40A, member RAS oncogene family)",-0.69
"RAB40A (RAB40A, member RAS oncogene family)",-0.36
"RAB40A (RAB40A, member RAS oncogene family)",-0.71
"RAB40A (RAB40A, member RAS oncogene family)",-0.22
DACT3 (dishevelled binding antagonist of beta catenin 3),0.84
DACT3 (dishevelled binding antagonist of beta catenin 3),1.93
DACT3 (dishevelled binding antagonist of beta catenin 3),0.44
DACT3 (dishevelled binding antagonist of beta catenin 3),0.83
USP13 (ubiquitin specific peptidase 13),-1.97 (active)
USP13 (ubiquitin specific peptidase 13),-1.74 (active)
USP13 (ubiquitin specific peptidase 13),-1.93 (active)
USP13 (ubiquitin specific peptidase 13),-1
GDPD5 (glycerophosphodiester phosphodiesterase domain containing 5),0.1
GDPD5 (glycerophosphodiester phosphodiesterase domain containing 5),-0.53
GDPD5 (glycerophosphodiester phosphodiesterase domain containing 5),0.05
GDPD5 (glycerophosphodiester phosphodiesterase domain containing 5),-0.25
RD3 (RD3 regulator of GUCY2D),-0.97
RD3 (RD3 regulator of GUCY2D),-0.42
RD3 (RD3 regulator of GUCY2D),-1.06
RD3 (RD3 regulator of GUCY2D),-0.81
CRIM1 (cysteine rich transmembrane BMP regulator 1),0.73
CRIM1 (cysteine rich transmembrane BMP regulator 1),0.89
CRIM1 (cysteine rich transmembrane BMP regulator 1),0.18
CRIM1 (cysteine rich transmembrane BMP regulator 1),0.34
ZNG1C (Zn regulated GTPase metalloprotein activator 1C),1.27
ZNG1C (Zn regulated GTPase metalloprotein activator 1C),0.74
ZNG1C (Zn regulated GTPase metalloprotein activator 1C),1.46
ZNG1C (Zn regulated GTPase metalloprotein activator 1C),2.8 (active)
PTRH1 (peptidyl-tRNA hydrolase 1 homolog),-0.83
PTRH1 (peptidyl-tRNA hydrolase 1 homolog),-0.33
PTRH1 (peptidyl-tRNA hydrolase 1 homolog),-0.5
PTRH1 (peptidyl-tRNA hydrolase 1 homolog),0.56
PIGV (phosphatidylinositol glycan anchor biosynthesis class V),-0.77
PIGV (phosphatidylinositol glycan anchor biosynthesis class V),-1.34
PIGV (phosphatidylinositol glycan anchor biosynthesis class V),-1.62 (active)
PIGV (phosphatidylinositol glycan anchor biosynthesis class V),-1.36
CNOT9 (CCR4-NOT transcription complex subunit 9),-0.12
CNOT9 (CCR4-NOT transcription complex subunit 9),0.92
CNOT9 (CCR4-NOT transcription complex subunit 9),1.25
CNOT9 (CCR4-NOT transcription complex subunit 9),7.6 (active)
FSTL1 (follistatin like 1),-0.89
FSTL1 (follistatin like 1),0.71
FSTL1 (follistatin like 1),-0.1
FSTL1 (follistatin like 1),-0.55
RPL31 (ribosomal protein L31),-1.36
RPL31 (ribosomal protein L31),-0.53
RPL31 (ribosomal protein L31),-1.53 (active)
RPL31 (ribosomal protein L31),-1.28
FAM209B (family with sequence similarity 209 member B),-0.09
FAM209B (family with sequence similarity 209 member B),0.49
FAM209B (family with sequence similarity 209 member B),-0.42
FAM209B (family with sequence similarity 209 member B),-0.27
CDC45 (cell division cycle 45),-0.12
CDC45 (cell division cycle 45),0.35
CDC45 (cell division cycle 45),0.58
CDC45 (cell division cycle 45),0.52
RTL4 (retrotransposon Gag like 4),0.24
RTL4 (retrotransposon Gag like 4),0.56
RTL4 (retrotransposon Gag like 4),0.25
RTL4 (retrotransposon Gag like 4),0.43
APOOL (apolipoprotein O like),0.56
APOOL (apolipoprotein O like),1.05
APOOL (apolipoprotein O like),1.65
APOOL (apolipoprotein O like),2.89 (active)
KIF3B (kinesin family member 3B),0.55
KIF3B (kinesin family member 3B),0.88
KIF3B (kinesin family member 3B),0.62
KIF3B (kinesin family member 3B),2.46
BSPRY (B-box and SPRY domain containing),1.71
BSPRY (B-box and SPRY domain containing),1.18
BSPRY (B-box and SPRY domain containing),-0.71
BSPRY (B-box and SPRY domain containing),-0.73

Entries above whose target name starts with P or p:
gene symbol,TNF reporter robust z-score
PTRH1 (peptidyl-tRNA hydrolase 1 homolog),-0.83
PTRH1 (peptidyl-tRNA hydrolase 1 homolog),-0.33
PTRH1 (peptidyl-tRNA hydrolase 1 homolog),-0.5
PTRH1 (peptidyl-tRNA hydrolase 1 homolog),0.56
PIGV (phosphatidylinositol glycan anchor biosynthesis class V),-0.77
PIGV (phosphatidylinositol glycan anchor biosynthesis class V),-1.34
PIGV (phosphatidylinositol glycan anchor biosynthesis class V),-1.62 (active)
PIGV (phosphatidylinositol glycan anchor biosynthesis class V),-1.36
